From PMC8064586

Target: T1, 3×FLAG-GFP-short Osk (Drosophila) (UniProt P25158)
T1 sequence: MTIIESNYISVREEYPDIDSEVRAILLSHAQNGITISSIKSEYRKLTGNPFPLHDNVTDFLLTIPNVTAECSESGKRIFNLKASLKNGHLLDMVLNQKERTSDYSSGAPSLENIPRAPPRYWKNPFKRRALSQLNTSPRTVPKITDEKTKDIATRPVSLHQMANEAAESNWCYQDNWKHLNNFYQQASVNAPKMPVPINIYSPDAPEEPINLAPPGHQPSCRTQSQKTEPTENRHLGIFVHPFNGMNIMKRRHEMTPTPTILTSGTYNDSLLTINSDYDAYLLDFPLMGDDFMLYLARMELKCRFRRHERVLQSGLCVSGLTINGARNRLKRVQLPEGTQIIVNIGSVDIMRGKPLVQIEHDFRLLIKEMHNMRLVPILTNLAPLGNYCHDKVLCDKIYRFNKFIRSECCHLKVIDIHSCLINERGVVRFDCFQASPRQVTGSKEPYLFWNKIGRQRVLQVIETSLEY
Experiment: co-IP; anti-FLAG M2-Sepharose on ovarian lysates (25 mM HEPES pH 6.8, 150 mM KCl, 1 mM MgCl2, 1% Triton X-100, 250 mM sucrose), overnight at 4°C, eluted with 3×FLAG peptides; western blots for FLAG, Yl, Rab5, Rab7 and Rab11

- binding: binds weakly
Substance: Yolkless (Drosophila (endogenous in ovaries)) (receptor)

These are yes or no findings as the source states them, for the method shown. In cells and extracts the contact can be indirect. A result given as binding can be weak or reduced; the word gives no strength. Tags and fused reporters may be left off the sequences shown.
